Test results as given in article PMC6132954.
Positions count from the first letter of the chain named. These are yes or no findings as the source states them, for the method shown. Binding seen in cells or lysates may run through a third protein. Some binding calls cover weakened binding; strength is not graded here. For some of these results: Tags and fused reporters may be left off the sequences shown.

By UniProt entry, the sequences of proteins in these tests, tags left out.
UniProt Q8BKJ9: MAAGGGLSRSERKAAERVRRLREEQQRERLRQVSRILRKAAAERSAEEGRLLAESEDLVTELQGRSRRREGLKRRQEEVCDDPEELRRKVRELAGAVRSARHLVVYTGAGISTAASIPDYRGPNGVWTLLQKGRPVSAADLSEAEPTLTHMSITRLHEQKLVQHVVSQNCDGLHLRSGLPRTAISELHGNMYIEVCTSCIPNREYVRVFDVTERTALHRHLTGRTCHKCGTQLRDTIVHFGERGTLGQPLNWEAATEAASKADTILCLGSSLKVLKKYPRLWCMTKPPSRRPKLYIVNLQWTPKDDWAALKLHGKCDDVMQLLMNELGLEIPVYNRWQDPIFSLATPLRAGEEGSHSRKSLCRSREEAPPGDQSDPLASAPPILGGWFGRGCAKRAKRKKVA
UniProt Q9NRC8: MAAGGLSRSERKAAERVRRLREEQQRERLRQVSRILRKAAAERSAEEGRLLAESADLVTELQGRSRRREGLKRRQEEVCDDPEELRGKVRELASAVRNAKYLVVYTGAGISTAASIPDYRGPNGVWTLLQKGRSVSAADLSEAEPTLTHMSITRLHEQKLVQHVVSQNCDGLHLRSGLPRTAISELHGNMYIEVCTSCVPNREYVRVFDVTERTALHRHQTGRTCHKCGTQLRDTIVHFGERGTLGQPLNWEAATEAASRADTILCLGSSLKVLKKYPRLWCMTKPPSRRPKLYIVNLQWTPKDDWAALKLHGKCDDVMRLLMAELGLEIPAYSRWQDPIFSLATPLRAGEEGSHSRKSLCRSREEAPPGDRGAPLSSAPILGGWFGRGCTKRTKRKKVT

Tests used:
[1] = molecular target: T1, endogenous Suv39h1 (primary MEFs) (mouse (endogenous in primary MEFs)) (UniProt O54864); experiment: co-IP; endogenous proteins in primary MEFs; immunoprecipitation with anti-Suv39h1 antibody (IgG as control), in presence of benzonase 0.15 U/µL; western blot with anti-Sirt7 and anti-Suv39h1
T1 sequence: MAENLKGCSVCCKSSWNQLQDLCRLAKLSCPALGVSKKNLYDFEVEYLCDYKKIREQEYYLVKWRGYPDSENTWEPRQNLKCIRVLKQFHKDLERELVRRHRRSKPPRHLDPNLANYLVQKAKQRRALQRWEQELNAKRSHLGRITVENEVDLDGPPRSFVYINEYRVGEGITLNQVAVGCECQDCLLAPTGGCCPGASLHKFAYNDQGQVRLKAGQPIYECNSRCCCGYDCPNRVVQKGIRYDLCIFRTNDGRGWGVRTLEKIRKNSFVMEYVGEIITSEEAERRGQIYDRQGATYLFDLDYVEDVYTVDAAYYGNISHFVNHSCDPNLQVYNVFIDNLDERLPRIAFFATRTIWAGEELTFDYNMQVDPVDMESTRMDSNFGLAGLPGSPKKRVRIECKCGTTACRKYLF

[2] = molecular target: T2, C-terminal EGFP-tagged mouse Suv39h1 (mouse) (UniProt O54864); experiment: co-IP; HEK293T co-transfected with EGFP-Suv39h1 and Flag-Sirt7, harvested 48 h post-transfection; immunoprecipitation with anti-EGFP antibody (non-immune IgG as control), in presence of benzonase 0.15 U/µL; western blot
T2 sequence: T1 sequence

Flag-Sirt1 K230Q = molecular target: T3, Flag-Sirt1 K230Q (UniProt Q923E4); experiment: co-IP; HEK293T transfected with Flag-Sirt1 wild type, K230R or K230Q, 48 h; Flag-tagged proteins isolated (ANTI-FLAG M2 Affinity Gel, elution with FLAG peptide), in presence of benzonase 0.15 U/µL; western blot for endogenous Suv39h1
T3 sequence: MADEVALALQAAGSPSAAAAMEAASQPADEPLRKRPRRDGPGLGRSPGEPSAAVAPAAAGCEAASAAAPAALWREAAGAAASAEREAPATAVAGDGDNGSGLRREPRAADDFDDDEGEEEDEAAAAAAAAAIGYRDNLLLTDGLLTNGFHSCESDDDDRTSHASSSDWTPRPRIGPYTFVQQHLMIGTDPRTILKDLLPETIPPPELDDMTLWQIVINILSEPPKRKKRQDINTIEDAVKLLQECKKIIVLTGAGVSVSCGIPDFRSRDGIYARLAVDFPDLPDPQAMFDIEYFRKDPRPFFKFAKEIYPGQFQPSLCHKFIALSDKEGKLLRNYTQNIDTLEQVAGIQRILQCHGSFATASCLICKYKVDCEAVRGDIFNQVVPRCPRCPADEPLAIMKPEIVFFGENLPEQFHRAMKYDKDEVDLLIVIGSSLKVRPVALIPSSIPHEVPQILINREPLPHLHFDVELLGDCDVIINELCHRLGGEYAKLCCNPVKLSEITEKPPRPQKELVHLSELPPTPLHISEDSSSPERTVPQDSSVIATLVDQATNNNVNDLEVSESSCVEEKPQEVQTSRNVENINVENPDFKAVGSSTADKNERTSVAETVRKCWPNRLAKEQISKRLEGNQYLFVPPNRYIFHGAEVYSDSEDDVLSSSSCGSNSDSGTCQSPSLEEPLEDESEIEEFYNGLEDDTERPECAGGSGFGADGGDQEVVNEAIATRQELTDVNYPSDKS

Flag-Sirt1 K230R = molecular target: T4, Flag-Sirt1 K230R (UniProt Q923E4); experiment: as above
T4 sequence: T3 sequence with Q230R

With “endogenous Sirt7 (primary MEFs) (from UniProt Q8BKJ9 1-402)” the binding [1] was “binds”.

For “C-terminal Flag-tagged human Sirt7 (from UniProt Q9NRC8 1-400)”, the binding [2] was “binds”.

B1: endogenous Suv39h1 (HEK293T) (protein, UniProt O43463 1-412)
chain: MAENLKGCSVCCKSSWNQLQDLCRLAKLSCPALGISKRNLYDFEVEYLCDYKKIREQEYYLVKWRGYPDSESTWEPRQNLKCVRILKQFHKDLERELLRRHHRSKTPRHLDPSLANYLVQKAKQRRALRRWEQELNAKRSHLGRITVENEVDLDGPPRAFVYINEYRVGEGITLNQVAVGCECQDCLWAPTGGCCPGASLHKFAYNDQGQVRLRAGLPIYECNSRCRCGYDCPNRVVQKGIRYDLCIFRTDDGRGWGVRTLEKIRKNSFVMEYVGEIITSEEAERRGQIYDRQGATYLFDLDYVEDVYTVDAAYYGNISHFVNHSCDPNLQVYNVFIDNLDERLPRIAFFATRTIRAGEELTFDYNMQVDPVDMESTRMDSNFGLAGLPGSPKKRVRIECKCGTESCRKYLF
With B1 the binding (Flag-Sirt1 K230Q) was “binds weakly” and the binding (Flag-Sirt1 K230R) was “binds”.
